{"sequences": {"note": "Chains of the proteins cited; added tags and fusions are not shown. Lines headed by an entry give the natural chain unless they say otherwise; changes in a name come on top. Residues count along the entry.", "UniProt Q15116": "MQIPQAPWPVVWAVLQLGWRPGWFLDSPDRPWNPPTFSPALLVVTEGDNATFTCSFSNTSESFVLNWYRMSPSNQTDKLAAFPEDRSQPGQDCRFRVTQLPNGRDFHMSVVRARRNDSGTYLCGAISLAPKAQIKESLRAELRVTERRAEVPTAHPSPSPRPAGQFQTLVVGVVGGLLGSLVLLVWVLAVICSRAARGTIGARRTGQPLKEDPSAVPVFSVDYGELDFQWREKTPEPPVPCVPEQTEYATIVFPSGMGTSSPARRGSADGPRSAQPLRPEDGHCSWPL", "human PD-1 expressed on CHO-S cells": "residues 25-288 of Q15116", "human PD-1 ECD (Acro Biosystems cat. no. PD1-H52219)": "residues 25-170 of Q15116"}, "source": "patent US20190367616A1", "binders": {"B1": {"name": "antibody 18049 (antibody, V domains shown)", "VH": "QVQLVESGGGVVQPGRSLRLSCAASGFTFSNYGMHWVRQAPGKGLEWVAVIWYDGSDKYYADSVKGRFTISRDNSKNTLYLQMNSLRAEDTAVYYCAGGGNYYGDFWGQGTLVTVSS", "VL": "EIVMTQSPSSLSASVGDRVTITCRASQGIRNDLGWYQQKPGKAPKRLIYVASNLQSGVPSRFSGSGSGTEFTLTISSLQPEDFATYYCLQYNSYPWTFGQGTKVEIKR"}, "B2": {"name": "antibody 18098 (antibody, V domains shown)", "VH": "QVQLQESGGGLVRPGGSLRLSCAASGFTFSSFAMNWVRQAPGKGLVWVSTITGGGTTSYYADSVKGRFTISRDNSKSTLFLQMNSLRAEDTAVYYCAKWGSWSAGAFDIWGQGTTVTVSS", "VL": "DIQLTQSPSSVSASVGDRVTITCRASQGISSWLAWYQQKPGKAPKLLIYAASSLQSGVPSRFSGSGSGTDFTLTISSLQPEDFATYYCQQANSFPWTFGQGTKVEIKR"}, "B3": {"name": "antibody 18113 (antibody, V domains shown)", "VH": "QVQLVESGGGLVKPGGSLRLSCAASGFTFSDYYMSWIRQAPGKGLEWVSYISSSGSTIYYADSAKGRFTISRDNAKNSLYLQMNSLRAEDTAVYYCARDTNWAFDYWGQGTLVTVSS", "VL": "DIQLTQSPDSLAVSLGERATINCKSSQSVFYSANNKNYLAWYQQKPGQPPKLLIYWTSTRESGVPDRFRGSGSGTDFTLTISSLQAEDVAVYYCQQFYSTPRTFGQGTKVEIKR"}, "B4": {"name": "antibody 18325 (antibody, V domains shown)", "VH": "QVQLQQSGGGLVQPGGSLRLSCAASGFTFSSHVMNWVRQAPGKGLEWVATISGSGVDTYYADSVKGRFTISRGNSKNMLYLQMNSLRAEDTAVYYCAKWGSWSAGAFDIWGQGTMVTVSS", "VL": "B2 VL with D1E, Q3V"}, "B5": {"name": "antibody 18413 (antibody, V domains shown)", "VH": "EVQLVESGGGLVQPGGSLRLSCAASGFTFSSFVMSWVRQAPGKGLEWLSTISGGGGSTYYADSVKGRFTISRDNSKNTLYLQMNSLRAEDTAVYYCAKDWDLYYFDYWGQGTLVTVSS", "VL": "B2 VL with S12P, S31N, W96L, Q100G"}}, "note": "Residue numbers refer to the chain shown, from its start. Results are given in words; binding and its absence hold for the method and conditions named. Some binding calls cover weakened binding; strength is not graded here.", "data": [{"molecular_target": "human PD-1 expressed on CHO-S cells (human) (UniProt Q15116)", "experiment": "flow cytometry PD-L1 blocking assay on CHO-S cells transiently expressing human PD-1; antibody 10 µg/ml final; blocked ligand R-PE PD-L1-Fc (16.4 nM final)", "values": [{"binder": "B1", "binding": "binds"}, {"binder": "B2", "binding": "binds"}, {"binder": "B3", "binding": "binds"}, {"binder": "B4", "binding": "binds"}, {"binder": "B5", "binding": "binds"}]}, {"molecular_target": "cynomolgus PD-1 ECD (Acro Biosystems cat. no. PD1-05223) (cynomolgus) (UniProt B0LAJ3)", "experiment": "SPR", "values": [{"binder": "B1", "binding": "binds"}, {"binder": "B2", "binding": "binds"}, {"binder": "B3", "binding": "binds"}, {"binder": "B4", "binding": "binds"}, {"binder": "B5", "binding": "binds"}]}, {"molecular_target": "human PD-1 ECD (Acro Biosystems cat. no. PD1-H52219) (human) (UniProt Q15116)", "experiment": "SPR", "values": [{"binder": "B1", "binding": "binds"}, {"binder": "B2", "binding": "binds"}, {"binder": "B3", "binding": "binds"}, {"binder": "B4", "binding": "binds"}, {"binder": "B5", "binding": "binds"}]}]}
